The supplement of paper PMC10626197
Counter-ions that a name gives are not always drawn. Some well-known active drugs show little effect in this data set, so a weak value is uncertain.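 The breast cancer cell line MCF7 was treated with drug pairs over a dose grid. Each plate included DMSO-only wells as the untreated reference and a doxorubicin series as the total-kill control. These viability readings have no hit threshold applied.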

Tested on: MCF7
Assay: cell viability relative to DMSO control (raw); higher = more viable cells
Conditions: exposure time 72 h
Protocol: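 MCF7 cells, 1000 cells/well in 384-well plates, treated with 6x6 dose matrices of drug pairs (1:3 serial dilutions, DMSO as lowest dose) for 72 h at 37 °C. Viability read by CellTiter-Glo luminescence, 3 biological replicates. Normalised viability sets 0% at the highest doxorubicin dose and 100% at the 0,0 µM control per combination.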

CO[C@H]1C(=O)[C@]2(C)[C@@H](OC)C[C@H]3OC[C@@]3(OC(C)=O)[C@H]2[C@H](OC(=O)c2ccccc2)[C@]2(O)C[C@H](OC(=O)[C@H](O)[C@@H](NC(=O)OC(C)(C)C)c3ccccc3)C(C)=C1C2(C)C [Cabazitaxel] + Cc1ncc(NC(=O)c2ccc(CN3CCN(C)CC3)c(C(F)(F)F)c2)cc1Nc1nccc(-c2cccnc2)n1 [Flumatinib (mesylate)]
cell viability [%]
Conditions	drug 2 concentration 0 µM	drug 2 concentration 0.617284 µM	drug 2 concentration 1.85185 µM	drug 2 concentration 5.55556 µM	drug 2 concentration 16.6667 µM	drug 2 concentration 50 µM
drug 1 concentration 0.0184691 µM	103	105	107	120	2.18	0.434
drug 1 concentration 0.0554074 µM	105	107	112	119	1.87	0.472
drug 1 concentration 0.166222 µM	95.7	104	107	110	30.3	0.669
drug 1 concentration 0.498667 µM	92.3	93.3	99.8	98.1	1.23	0.389
drug 1 concentration 1.496 µM	105	108	114.2	108	1.63	0.722

CO[C@H]1C(=O)[C@]2(C)[C@@H](OC)C[C@H]3OC[C@@]3(OC(C)=O)[C@H]2[C@H](OC(=O)c2ccccc2)[C@]2(O)C[C@H](OC(=O)[C@H](O)[C@@H](NC(=O)OC(C)(C)C)c3ccccc3)C(C)=C1C2(C)C [Cabazitaxel] + N#CCC1(n2cc(-c3ncnc4[nH]ccc34)cn2)CN(C2CCN(C(=O)c3ccnc(C(F)(F)F)c3F)CC2)C1 [Itacitinib]
cell viability [%]
Conditions	drug 2 concentration 0 µM	drug 2 concentration 0.185185 µM	drug 2 concentration 0.555556 µM	drug 2 concentration 1.66667 µM	drug 2 concentration 5 µM	drug 2 concentration 15 µM
drug 1 concentration 0.0184691 µM	86.5	85.2	82	80.7	79.1	75.7
drug 1 concentration 0.0554074 µM	78	73	95	97.2	80.1	66.4
drug 1 concentration 0.166222 µM	96.5	98.7	93.3	96.7	91.7	82.1
drug 1 concentration 0.498667 µM	75.8	84.6	89.8	90.2	77.4	61.1
drug 1 concentration 1.496 µM	96.6	97.6	93.6	92.6	94.1	85.7

O=NN(CCCl)C(=O)NCCCl [Carmustine] + CN(C)CCCN1c2ccccc2CCc2ccc(Cl)cc21 [Clomipramine (hydrochloride)]
cell viability [%]
Conditions	drug 2 concentration 0 µM	drug 2 concentration 0.123457 µM	drug 2 concentration 0.37037 µM	drug 2 concentration 1.11111 µM	drug 2 concentration 3.33333 µM	drug 2 concentration 10 µM
drug 1 concentration 0.925926 µM	104	96.1	100	86.9	100	78.6
drug 1 concentration 2.77778 µM	97.1	91.9	99.4	89.6	93.9	73.1
drug 1 concentration 8.33333 µM	93	92.8	102	87.5	90.6	78.4
drug 1 concentration 25 µM	76.5	74.1	76.8	74.4	67.9	57.6
drug 1 concentration 75 µM	53.2	43.8	45.9	49.1	45.3	32.3

C[C@@H](Oc1cc(-c2cnn(C3CCNCC3)c2)cnc1N)c1c(Cl)ccc(F)c1Cl [Crizotinib] + C=C1/C(=C\C=C2/CCC[C@]3(C)[C@@H]([C@H](C)CCCC(C)C)CC[C@@H]23)C[C@@H](O)C[C@@H]1O [Alfacalcidol]
cell viability [%]
Conditions	drug 2 concentration 0 µM	drug 2 concentration 0.617284 µM	drug 2 concentration 1.85185 µM	drug 2 concentration 5.55556 µM	drug 2 concentration 16.6667 µM	drug 2 concentration 50 µM
drug 1 concentration 0.0987654 µM	87.1	80.6	81.1	78.1	64.1	0.741
drug 1 concentration 0.296296 µM	89.9	79	79.1	75.8	59	0.631
drug 1 concentration 0.888889 µM	81	76.4	71.4	70	47.9	0.297
drug 1 concentration 2.66667 µM	45.6	41.5	40.9	32.3	19	0.273
drug 1 concentration 8 µM	8.5	5.72	9.24	2.84	4.94	0.295

C[C@@H](Oc1cc(-c2cnn(C3CCNCC3)c2)cnc1N)c1c(Cl)ccc(F)c1Cl [Crizotinib] + CC(C)C[C@@H](C(=O)N[C@H](C(=O)OC1CCCC1)c1ccccc1)[C@H](O)C(=O)NO [Tosedostat]
cell viability [%]
Conditions	drug 2 concentration 0 µM	drug 2 concentration 0.246914 µM	drug 2 concentration 0.740741 µM	drug 2 concentration 2.22222 µM	drug 2 concentration 6.66667 µM	drug 2 concentration 20 µM
drug 1 concentration 0.0987654 µM	110	101	92.6	79.9	78	64.8
drug 1 concentration 0.296296 µM	118	102	95	91.7	82.4	69.5
drug 1 concentration 0.888889 µM	107.4	86.7	85.9	77.5	70.7	58.6
drug 1 concentration 2.66667 µM	72.9	61.5	63.8	61.1	53.8	47.2
drug 1 concentration 8 µM	25.5	21	20	17.7	16.2	7.84
